The record followed here is paper PMC11060744.

The target of assay [1] is T1, G protein-coupled receptor 37-like 1 (GPR37L1) (mouse (endogenous in mouse DRG)) (UniProt Q99JG2).
T1 sequence: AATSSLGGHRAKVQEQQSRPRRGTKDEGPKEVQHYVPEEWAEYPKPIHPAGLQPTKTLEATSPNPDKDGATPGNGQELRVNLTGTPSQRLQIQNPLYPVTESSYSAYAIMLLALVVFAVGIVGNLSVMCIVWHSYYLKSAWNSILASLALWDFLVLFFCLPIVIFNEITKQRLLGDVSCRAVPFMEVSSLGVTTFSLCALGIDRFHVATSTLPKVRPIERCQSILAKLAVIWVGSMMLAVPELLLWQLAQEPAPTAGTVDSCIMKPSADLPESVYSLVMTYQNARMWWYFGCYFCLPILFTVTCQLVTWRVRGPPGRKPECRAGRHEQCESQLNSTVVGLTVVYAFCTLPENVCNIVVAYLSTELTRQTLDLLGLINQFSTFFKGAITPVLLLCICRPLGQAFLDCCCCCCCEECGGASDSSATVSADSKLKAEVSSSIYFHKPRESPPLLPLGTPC
Description: co-IP; mouse DRG lysates in harvest buffer (10 mM HEPES, 100 mM NaCl, 5 mM EDTA, 1% Triton X-100, pH 7.4); immunoprecipitated with anti-GPR37L1, anti-Kir4.1/KCNJ10 or normal rabbit IgG, protein A magnetic beads; Western blot. For orientation: In western blotting, separated proteins are transferred to a membrane and probed.

In assay [2] the target is T2, inwardly rectifying K+ channel KCNJ10 (Kir4.1) (mouse (endogenous in mouse DRG)) (UniProt Q9JM63).
T2 sequence: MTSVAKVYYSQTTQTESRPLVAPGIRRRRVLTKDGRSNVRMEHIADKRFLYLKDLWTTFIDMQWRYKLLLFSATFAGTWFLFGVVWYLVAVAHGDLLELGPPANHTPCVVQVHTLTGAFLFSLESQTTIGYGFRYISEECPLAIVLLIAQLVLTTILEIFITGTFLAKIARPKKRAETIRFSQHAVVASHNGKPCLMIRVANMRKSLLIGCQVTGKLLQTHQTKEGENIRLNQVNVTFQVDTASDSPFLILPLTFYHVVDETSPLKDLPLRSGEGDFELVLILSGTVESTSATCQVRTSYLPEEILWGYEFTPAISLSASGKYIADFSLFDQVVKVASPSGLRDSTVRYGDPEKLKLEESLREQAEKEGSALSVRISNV
The description is as above.

Results are given in words; binding and its absence hold for the method and conditions named. In cells and extracts the contact can be indirect. Some results given as binding are weak or reduced against the parent protein; the word gives no strength.

B1: inwardly rectifying K+ channel KCNJ10 (Kir4.1) (protein, UniProt Q9JM63 1-379)
chain: T2 sequence
On to B1, for which the binding entry in assay [1] is recorded as “binds”.

B2: G protein-coupled receptor 37-like 1 (GPR37L1) (receptor, UniProt Q99JG2 25-481)
chain: T1 sequence
For B2, the binding result in assay [2] was “binds”.
